Substitutions are numbered along the chain they refer to. No constants are given. Whether binding was seen depends on the method and setting. Some results given as binding are weak or reduced against the parent protein; the word gives no strength.
How the values were obtained:
[1] = molecular target: T1, human CD52 (wildtype) (human); assay: FACS, CHO cells expressing wild type human CD52, PE-conjugated goat anti-human secondary (Example 4)
T1 sequence (chain, glycosylated (N-linked glycan), GPI-anchored): GQNDTSQTSSPS

[2] = molecular target: T1, human CD52 (wildtype) (human); assay: ten-colour flow cytometry, human PBMC, Alexa fluor 647-conjugated antibody, gated lymphocyte subsets (Example 7)
[3] = molecular target: T2, affinity purified CD52 from CHO-CD52 cells, mock-treated (glycosylated CD52) (human); assay: western blot of affinity purified CD52 +/- PNGase-F, antibody at 3 µg/ml
T2 sequence (chain, N-linked glycan present; GPI anchor): GQNDTSQTSSPS

[4] = molecular target: T1, human CD52 (wildtype) (human); assay: ten-color flow cytometry, human PBMC lymphocyte subsets
[5] = molecular target: T1, human CD52 (wildtype) (human); assay: flow cytometry, human CD4+ T cells and huCD52 transgenic mouse CD4+ T cells
[6] = molecular target: T1, human CD52 (wildtype) (human); assay: flow cytometry, FITC-labelled antibody on spleen lymphocytes of huCD52 transgenic mice (CD4 T cells, CD8 T cells, B cells); the sheet prints K11, while legend paragraph 240 and Example 57 name 2C3-SFD1/K12
[7] = molecular target: T1, human CD52 (wildtype) (human); assay: flow cytometry, FITC-labeled antibody (FIG. 85)
[8] = molecular target: T3, WT 2 wildtype human CD52 peptide (human); assay: Biacore T100 SPR, antibody immobilized, peptide injected at up to 500 nM
T3 sequence (peptide, by the resolver, chain 1 pos 1, Gly with N-terminal biotin, written G): GQNDTSQTSSPSAD

[9] = molecular target: T1, human CD52 (wildtype) (human); assay: flow cytometry, splenocytes of huCD52 transgenic mice, FITC-conjugated antibody
[10] = molecular target: T1, human CD52 (wildtype) (human); assay: flow cytometry, CD4+ T cells from human PBMC and from huCD52 transgenic mouse spleen, 8-point 1:3 dilution from 100 ug/mL, FITC goat F(ab)2 anti-human Fc gamma secondary (Example 29)
[11] = molecular target: T1, human CD52 (wildtype) (human); assay: flow cytometry, Raji cells, FITC-conjugated antibody at 10 µg/ml
[12] = molecular target: T1, human CD52 (wildtype) (human); assay: multi-color flow cytometry, human PBMC subsets, FITC-conjugated antibody at 10 µg/ml
[13] = molecular target: T1, human CD52 (wildtype) (human); assay: flow cytometry, splenocytes of huCD52-KI/KO transgenic mice
[14] = molecular target: T1, human CD52 (wildtype) (human); assay: flow cytometry on splenocytes of huCD52-KI/KO transgenic mice, detection with a secondary antibody (FL2-H)
[15] = molecular target: T1, human CD52 (wildtype) (human); assay: flow cytometry, CHO-CD52 cells
[16] = molecular target: T1, human CD52 (wildtype) (human); assay: flow cytometry, human PBMC subsets (FIG. 34)
[17] = molecular target: T1, human CD52 (wildtype) (human); assay: flow cytometry, CHO-CD52 cells, methods of Example 22 (antibody at 10 ug/ml, FITC goat anti-human secondary) (Example 24)
[18] = molecular target: T1, human CD52 (wildtype) (human); assay: multi-colour flow cytometry, human PBMC of a normal donor, FITC-conjugated antibody at 10 ug/ml (Example 30)
[19] = molecular target: T1, human CD52 (wildtype) (human); assay: flow cytometry, FITC-labelled antibody on spleen lymphocytes of huCD52 transgenic mice (CD4 T cells, CD8 T cells, B cells)
[20] = molecular target: T1, human CD52 (wildtype) (human); assay: flow cytometry, CHO-CD52 cells, methods of Example 22 (antibody at 10 ug/ml, FITC goat anti-human secondary) (Example 28)

Measured: binding

B1: chimeric 23E6 antibody (antibody, human IgG1, V domains shown)
VH: EVKLEESGGGLVQPGGSMKLSCVASGFTFNKYWMNWVRQSPDKGLECIAQIRLKSDNYATHYAESVKGRFTISRDDSKSSVYLQMNNLRAEDTGIYYCTPIDYWGQGTTLTVSS
VL: DIVLTQTPRTLSVTIGQPASISCKSSQSLLYSNGKTYLNWLLQRPGQSPKRLIYLVSKLDSGVPDRFAGSGSGTDFTLKISRVEAEDLGIYYCVQGTRFHTFGAGTKLELK
binds: [1] | [2] | [3] | [4]

B2: chimeric 4G7 antibody (antibody, human IgG1, V domains shown)
VH: EVKLEESGGGLVQPGGSMKLSCAVSGFTFSDAWMDWVRQSPEKGLEWVAEIRNKAKNHVKYYAESVKGRFTISRDDSKSSVYLQMNNLRTEDTGIYYCTSLDYWGQGTALTVSS
VL: DIVITQSTLTLSVTIGQPASISCKSSQSLLDSDGKTYLNWLLQRPGQSPKRLMYLVSNLGSGVPDRFTGSGSGTDFTLKVSRVEAEDLGVYYCWQGTHFPWTFGGGTKLEII
binds: [1] | [2] | [3] | [4]

B3: humanized antibody 2C3-SFD1/K12 (antibody, V domains shown)
VH: EVQLVESGGGLVQPGGSLRLSCAASGFTFNTYWMNWVRQAPGKGLEWVGQIRLKSNNYATHYAESVKGRFTISRDDSKNSLYLQMNSLKTEDTAVYYCTPVDFWGQGTTVTVSS
VL: DIVMTQTPLSLSVTPGQPASISCKSSQSLLYSNGKTYLNWLLQKPGQSPQRLIYLVSKLDSGVPDRFSGSGSGTDFTLKISRVEAEDVGVYYCVQGTHLHTFGQGTRLEIKR
binds: [5] | [6] | [7] | [8] | [9] | [10] | [11] | [12] | [13] | [14] | [15] | [16] | [17] | [18]

B4: humanized antibody 2C3-SFD1/K11 (antibody, human IgG1, V domains shown)
VH: B3 VH
VL: DIVMTQTPLSLSVTPGQPASISCKSSQSLLYSNGKTYLNWYLQKPGQSPQRLIYLVSKLDSGVPDRFSGSGSGTDFTLKISRVEAEDVGVYYCVQGTHLHTFGQGTRLEIK
binds: [15] | [17]

B5: humanized antibody 2C3-SFD1/K1 (antibody, human IgG1, V domains shown)
VH: B3 VH
VL: B4 VL with R51L
binds: [15] | [17]

B6: humanized antibody 12G6-SFD1/K12 (antibody, V domains shown)
VH: B3 VH with T28P, N30S, T31N, V101I, F103Y
VL: B3 VL with L41V, T97S, L99F, R107K
binds: [8]

B7: humanized antibody 2C3-H17/K11 (antibody, human IgG1, V domains shown)
VH: B3 VH with L18M, G49A, L81V
VL: B4 VL
binds: [15] | [17]

B8: humanized antibody 9D9-H18/K13 (antibody, V domains shown)
VH: EVQLLESGGGLVQPGGSLRLSCAASGFTFSDAWMDWVRQAPGKGLELVAEIRNKAKNHATYYAESVKGRFTISRDNSKNTLYLQMNSLRAEDTAVYYCTTLDSWGQGTTVTVSS
VL: DIVMTQTPLSLSVTPGQPASISCKSSQSLLDSDGKTYLNWLLQKPGQSPQRLIYLVSALDSGVPDRFSGSGSGTDFTLKISRVEAEDVGVYYCWQGTHFPWTFGQGTKLEIKR
binds: [7] | [9] | [12] | [19] | [15] | [16] | [20] | [18]

B9: humanized 9D9 clone: heavy chain variant 9D9-VH18 paired with light chain variant 9D9-VK12 (antibody, human IgG1, V domains shown)
VH: B8 VH
VL: DIVMTQTPLSLSVTPGQPASISCKSSQSLLDSDGKTYLNWLLQKPGQSPKRLIYLVSALDSGVPDRFSGSGSGTDFTLKISRVEAEDVGVYYCWQGTHFPWTFGQGTKLEIK
binds: [15]

B10: humanized antibody 9D9-H16/K13 (antibody, V domains shown)
VH: B8 VH with A49S
VL: B8 VL
binds: [7] | [9] | [10] | [11] | [12] | [19] | [15] | [16] | [20] | [18]

B11: humanized 9D9 clone: heavy chain variant 9D9-VH15 paired with light chain variant 9D9-VK12 (antibody, human IgG1, V domains shown)
VH: B8 VH with V48T
VL: B9 VL
binds: [15]

B12: humanized 9D9 clone: heavy chain variant 9D9-VH17 paired with light chain variant 9D9-VK13 (antibody, human IgG1, V domains shown)
VH: B8 VH with V48T, A49S
VL: B9 VL with K50Q
binds: [15] | [20]

B13: humanized 9D9 clone: heavy chain variant 9D9-VH16 paired with light chain variant 9D9-VK12 (antibody, human IgG1, V domains shown)
VH: B8 VH with A49S
VL: B9 VL
binds: [15]

B14: humanized antibody 9D9-H11/K12 (antibody, human IgG1, V domains shown)
VH: B8 VH with V48T, N79S, L81V
VL: B9 VL
binds: [10] | [15] | [20]

B15: humanized antibody 9D9-H11/K13 (antibody, human IgG1, V domains shown)
VH: B8 VH with V48T, N79S, L81V
VL: B9 VL with K50Q
binds: [15] | [20]

B16: humanized 9D9 clone: heavy chain variant 9D9-VH15 paired with light chain variant 9D9-VK13 (antibody, human IgG1, V domains shown)
VH: B8 VH with V48T
VL: B9 VL with K50Q
binds: [15] | [20]

B17: humanized antibody 9D9-H10/K13 (antibody, human IgG1, V domains shown)
VH: B8 VH with L47W, A49S
VL: B9 VL with K50Q
binds: [15] | [20]

From US20120100152A1
